These are yes or no findings as the source states them, for the method shown. Binding seen in cells or lysates may run through a third protein. Some binding calls cover weakened binding; strength is not graded here.
Tests used:
[1] = target: EGFP-fused Vif (HIV-1) (UniProt P12504); experiment: co-IP; HEK293T cotransfected with A3G, GFP-Vif and rising amounts of MDM2; immunoprecipitated with anti-GFP mAb, blotted with the indicated Abs
[2] = target: HA-tagged MDM2 mutant containing amino acids 168–411 (UniProt Q00987); experiment: co-IP; HEK293T cotransfected with HA-tagged MDM2 Wt or deletion mutants and pNL-A1, MG132 for 6 hrs; immunoprecipitated with anti-HA mAb, blotted with anti-Vif mAb
[3] = target: HA-tagged MDM2 wild type (UniProt Q00987); experiment: co-IP; HEK293T cotransfected with pCMV4/HA-MDM2 and pNL-A1, MG132 for 6 hrs; lysis in 25 mM HEPES pH7.4/150 mM NaCl/1 mM MgCl2/0.5% TritonX-100/10% Glycerol; immunoprecipitated with anti-MDM2 mAb and Protein A-Sepharose at 4°C, washed with RIPA buffer, blotted with anti-Vif mAb
[4] = target: GST-Vif (HIV-1) (UniProt P12504); experiment: pull-down; GST pull-down with GST-Vif or GST; data not shown

Sequences of proteins named here, by UniProt entry; tags and fusion partners are left off. A change or cut given only in a name is not applied to a line headed by its entry. A line that says so, or that is headed by a name, gives the form on record, which may keep a tag or linker. Residues count along the entry.
UniProt P12504: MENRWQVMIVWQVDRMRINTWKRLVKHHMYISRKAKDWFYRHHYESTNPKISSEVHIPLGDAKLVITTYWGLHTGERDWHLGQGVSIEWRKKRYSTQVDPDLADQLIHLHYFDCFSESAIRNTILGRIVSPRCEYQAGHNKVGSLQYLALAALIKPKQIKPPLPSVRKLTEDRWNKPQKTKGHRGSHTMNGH
UniProt Q00987: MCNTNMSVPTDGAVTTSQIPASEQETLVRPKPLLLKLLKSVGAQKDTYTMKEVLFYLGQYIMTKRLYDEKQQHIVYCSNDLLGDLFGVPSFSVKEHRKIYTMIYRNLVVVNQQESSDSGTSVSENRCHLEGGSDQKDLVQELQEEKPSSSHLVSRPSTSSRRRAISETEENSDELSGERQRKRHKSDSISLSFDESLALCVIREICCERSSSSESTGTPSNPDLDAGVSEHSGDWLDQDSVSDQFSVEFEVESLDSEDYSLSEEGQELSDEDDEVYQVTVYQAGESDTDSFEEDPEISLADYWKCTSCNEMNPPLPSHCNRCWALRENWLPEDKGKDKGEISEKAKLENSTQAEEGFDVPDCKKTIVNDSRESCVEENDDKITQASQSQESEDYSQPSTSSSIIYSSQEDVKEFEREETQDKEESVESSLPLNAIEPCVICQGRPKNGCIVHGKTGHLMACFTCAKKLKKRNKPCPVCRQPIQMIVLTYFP
HA-tagged MDM2 mutant containing amino acids 168–411: residues 168-411 of Q00987

HA-tagged MDM2 wild type (from UniProt Q00987 1-491) (enzyme)
binding [1]: binds

HIV-1 Vif expressed from the subgenomic vector pNL-A1 (from UniProt P12504 1-192)
binding [2]: binds | binding [3]: binds

MDM2 used in the GST pull-down assays (from UniProt Q00987 1-491) (enzyme)
binding [4]: binds

— article PMC2629459
